Test results reported in PMC9940370.
Results are given in words; binding and its absence hold for the method and conditions named. In cells and extracts the contact can be indirect. Some entries that bind do so weakly or less than the wild type. For some assays here: Tags and fused reporters may be left off the sequences shown.

Amino acid sequences for entries named in this document (tags omitted).
UniProt P07355: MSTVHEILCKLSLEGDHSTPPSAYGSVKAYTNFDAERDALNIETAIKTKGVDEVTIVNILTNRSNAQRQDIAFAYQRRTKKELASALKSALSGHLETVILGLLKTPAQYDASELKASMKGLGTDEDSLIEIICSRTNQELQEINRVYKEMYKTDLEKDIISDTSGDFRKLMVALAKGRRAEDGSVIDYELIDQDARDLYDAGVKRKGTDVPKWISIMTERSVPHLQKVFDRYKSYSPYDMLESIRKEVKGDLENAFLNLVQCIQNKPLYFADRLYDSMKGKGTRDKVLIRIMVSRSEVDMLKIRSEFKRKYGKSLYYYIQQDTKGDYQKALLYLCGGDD
UniProt Q9H0U4: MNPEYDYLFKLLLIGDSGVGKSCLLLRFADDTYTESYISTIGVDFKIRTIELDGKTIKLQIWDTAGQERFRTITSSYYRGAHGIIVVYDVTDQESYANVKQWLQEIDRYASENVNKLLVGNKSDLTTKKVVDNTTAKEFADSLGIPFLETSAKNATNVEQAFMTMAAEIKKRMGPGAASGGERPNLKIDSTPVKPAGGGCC

Columns and labels:
[1] = target: Flag-tagged ANXA2 (Flag-ANXA2) (UniProt P07355); assay: co-IP; lysates of MDA-MB-231 cells stably expressing Flag-tagged proteins (Fig. 5e, Fig. 7b-c); the precipitating antibody is not stated for these panels
[2] = target: T1, Flag-tagged AQP1 (Flag-AQP1) (human) (UniProt P29972); assay: co-IP; Flag immunoprecipitation: cell lysate (IP lysis buffer, protease inhibitors) incubated with anti-flag M2 affinity gel at 4 °C overnight, eluted with 3 × flag peptides, western blot
T1 sequence: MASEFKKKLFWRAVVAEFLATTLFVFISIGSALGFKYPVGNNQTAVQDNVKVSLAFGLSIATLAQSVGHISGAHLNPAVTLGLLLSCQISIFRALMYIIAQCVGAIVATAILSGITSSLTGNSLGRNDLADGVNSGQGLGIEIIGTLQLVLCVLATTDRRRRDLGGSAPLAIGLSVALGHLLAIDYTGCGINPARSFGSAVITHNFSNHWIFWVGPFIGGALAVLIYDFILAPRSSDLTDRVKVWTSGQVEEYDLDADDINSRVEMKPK

[3] = target: Flag-tagged Rab1b (Flag-Rab1b) (UniProt Q9H0U4); assay: co-IP; lysates of MDA-MB-231 cells stably expressing Flag-tagged proteins (Fig. 5e, Fig. 7b-c); the precipitating antibody is not stated for these panels
[4] = target: T1, Flag-tagged AQP1 (Flag-AQP1) (human); assay: co-IP; whole cell lysates of Flag-AQP1/MDA-MB-231 cells, 500 µg protein with anti-ANXA2 or anti-AQP1 or control IgG at 4 °C overnight, protein A beads, western blot

Substance | binding [1] | binding [2] | binding [3] | binding [4]
Rab1b (endogenous, MDA-MB-231 cells) (from UniProt Q9H0U4 1-201) | binds | binds | – | –
ANXA2 (endogenous, MDA-MB-231 cells) (from UniProt P07355 1-339) | – | binds | binds | binds
